The source of these data is article PMC9080189.

Amino acid sequences for entries named in this document (tags omitted). A change or cut given only in a name is not applied to a line headed by its entry.
UniProt P46938: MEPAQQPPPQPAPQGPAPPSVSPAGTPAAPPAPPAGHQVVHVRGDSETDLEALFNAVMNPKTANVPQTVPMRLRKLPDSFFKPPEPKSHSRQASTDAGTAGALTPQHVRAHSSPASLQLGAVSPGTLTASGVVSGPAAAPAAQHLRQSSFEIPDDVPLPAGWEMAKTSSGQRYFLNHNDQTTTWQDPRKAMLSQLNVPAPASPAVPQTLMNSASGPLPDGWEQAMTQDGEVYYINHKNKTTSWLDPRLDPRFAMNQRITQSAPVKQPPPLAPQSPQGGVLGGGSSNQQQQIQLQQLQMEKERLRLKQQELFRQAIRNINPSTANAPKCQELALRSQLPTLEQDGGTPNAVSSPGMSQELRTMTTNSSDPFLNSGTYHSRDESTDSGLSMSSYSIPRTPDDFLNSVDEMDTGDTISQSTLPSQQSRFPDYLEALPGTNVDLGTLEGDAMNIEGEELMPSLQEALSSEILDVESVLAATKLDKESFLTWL

For experiment [1], the target named is ΔCDX2, PPQY deletion mutant of CDX2 (Δ31-58) (mouse) (UniProt P43241). The experiment can be described thus: co-IP; SH-SY5Y cells transfected with full-length CDX2 or ΔCDX2 along with full-length YAP, 48 h; IP with anti-FLAG antibody, blot with anti-YAP.
The target in experiment [2] is FLAG-tagged ΔWW1YAP (Δ156-189) (mouse) (UniProt P46938). As to the kind of experiment: co-IP; lysates of TSCs transfected with FLAG-tagged full-length YAP or YAP deletion constructs; IP with anti-FLAG antibody, immunoblot with anti-CDX2 (endogenous CDX2); isotype matched antibody as negative control. In general terms: Immunoblotting shows a protein as a band on a membrane.

These are yes or no findings as the source states them, for the method shown. In cells and extracts the contact can be indirect. Binding can be weak; no strength is given.

For the molecule “full-length YAP (expressed in SH-SY5Y cells) (from UniProt P46938-1 1-488)”, the binding entry in experiment [1] was “binds”.

B1: CDX2 (Caudal type homeobox 2), endogenous in trophoblast stem cells (protein, UniProt P43241 1-311)
chain: MYVSYLLDKDVSMYPSSVRHSGGLNLAPQNFVSPPQYPDYGGYHVAAAAAATANLDSAQSPGPSWPTAYGAPLREDWNGYAPGGAAAANAVAHGLNGGSPAAAMGYSSPAEYHAHHHPHHHPHHPAASPSCASGLLQTLNLGPPGPAATAAAEQLSPSGQRRNLCEWMRKPAQQSLGSQVKTRTKDKYRVVYTDHQRLELEKEFHFSRYITIRRKSELAATLGLSERQVKIWFQNRRAKERKIKKKQQQQQQQQQQQPPQPPPQPSQPQPGALRSVPEPLSPVTSLQGSVPGSVPGVLGPAGGVLNSTVTQ
Regarding B1, in experiment [2], the binding result is “binds”.
